Test results taken from PMC7900654.

What was measured:
[1] = biological target: T1, TIA1 (human (K562 cells)) (UniProt P31483); test: pull-down; details: K562 lysate in 50 mM Tris-HCl pH 7.5, 150 mM NaCl, 1 mM EDTA, 1% Triton X-100, 0.5 mM DTT, 0.1% sodium deoxycholate, 4 °C, protein in an extract
T1 sequence (looked up, limits assumed): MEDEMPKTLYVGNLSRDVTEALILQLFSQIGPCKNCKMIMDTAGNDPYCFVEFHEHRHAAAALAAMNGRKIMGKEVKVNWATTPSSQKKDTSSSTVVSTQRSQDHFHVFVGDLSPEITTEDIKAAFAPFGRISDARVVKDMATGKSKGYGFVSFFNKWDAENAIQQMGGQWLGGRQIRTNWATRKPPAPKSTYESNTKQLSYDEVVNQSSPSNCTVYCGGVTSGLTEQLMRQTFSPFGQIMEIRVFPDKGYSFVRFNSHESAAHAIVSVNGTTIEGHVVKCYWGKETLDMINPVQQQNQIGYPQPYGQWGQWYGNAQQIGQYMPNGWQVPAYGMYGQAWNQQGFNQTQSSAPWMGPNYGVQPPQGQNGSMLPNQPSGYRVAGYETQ

[2] = biological target: T2, SND1 (human (K562 cells)) (UniProt Q7KZF4); test: pull-down; details: K562 lysate in 50 mM Tris-HCl pH 7.5, 150 mM NaCl, 1 mM EDTA, 1% Triton X-100, 0.5 mM DTT, 0.1% sodium deoxycholate, 4 °C, protein in an extract
T2 sequence (looked up, limits assumed): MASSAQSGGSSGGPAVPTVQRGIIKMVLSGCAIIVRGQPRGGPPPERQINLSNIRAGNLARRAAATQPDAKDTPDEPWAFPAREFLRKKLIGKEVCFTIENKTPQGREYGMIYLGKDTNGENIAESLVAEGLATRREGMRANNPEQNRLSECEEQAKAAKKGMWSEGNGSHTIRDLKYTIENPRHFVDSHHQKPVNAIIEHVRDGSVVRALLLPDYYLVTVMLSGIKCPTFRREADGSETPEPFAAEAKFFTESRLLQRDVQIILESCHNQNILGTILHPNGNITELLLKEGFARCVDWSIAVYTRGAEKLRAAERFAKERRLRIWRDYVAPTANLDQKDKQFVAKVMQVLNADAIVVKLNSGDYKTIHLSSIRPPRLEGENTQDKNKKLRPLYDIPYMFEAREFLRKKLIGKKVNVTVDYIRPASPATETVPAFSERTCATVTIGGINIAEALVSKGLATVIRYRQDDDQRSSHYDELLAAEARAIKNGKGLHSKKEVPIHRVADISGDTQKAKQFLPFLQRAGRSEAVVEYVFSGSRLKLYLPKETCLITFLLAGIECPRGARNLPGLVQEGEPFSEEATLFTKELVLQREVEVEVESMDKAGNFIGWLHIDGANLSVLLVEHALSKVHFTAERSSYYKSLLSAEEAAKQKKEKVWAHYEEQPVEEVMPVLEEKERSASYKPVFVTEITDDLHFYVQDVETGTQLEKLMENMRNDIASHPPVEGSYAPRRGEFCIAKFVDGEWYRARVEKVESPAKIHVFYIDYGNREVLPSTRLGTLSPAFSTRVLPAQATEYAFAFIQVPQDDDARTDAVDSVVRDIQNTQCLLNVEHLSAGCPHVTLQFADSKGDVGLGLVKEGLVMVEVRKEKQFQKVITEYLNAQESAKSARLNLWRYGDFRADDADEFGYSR

“GCCUCCGCCUCUCUCUUUACUGCGGCGCGGGGCAAGGUGUGCGGGCGG [TIA1_target2_WT (CANX), single-stranded]”: binds ([1]; single-stranded conformation).

“UAACUUGGACUAGUGUAACUCCUUGAGCCAUGCUGUCUAGUCUU [SND1_target (EIF1), slow-cooled, folded]”: binds ([2]; slow-cooled (refolded)).

“UAACUUGGACUAGUGUAACUCCUUGAGCCAUGCUGUCUAGUCUU [SND1_target (EIF1), snap-cooled, single-stranded]”: binds more weakly ([2]; fast-cooled (snap-cooled)).

“UAGGAAUGUGAAGCCAGAGGUUUCGGAUUCGUGACAU [TIA1_target1 (SLC35D2), snap-cooled, single-stranded]”: binds ([1]; fast-cooled (snap-cooled)).

“GCCUCCGCCUCACACAAAACUGCGGCGCGGGGCAAGGUGUGCGGGCGG [target2_mut1 (CANX HAR mutant), single-stranded]”: no binding ([1]; snap-cooled, binding stated as disrupted).

“UAGGAAUGUGAAGCCAGAGGUUUCGGAUUCGUGACAU [TIA1_target1 (SLC35D2), folded]”: binds more weakly ([1]; slow-cooled (refolded)).

“GCCUCCGCCUCUCUCUUUACUGCGGCGCGGGGCAAGGAAAGAGAGCGG [target2_mut2 (CANX distal mutant), folded]”: binds more weakly ([1]; refolded, binding stated as diminished).

“GCCUCCGCCUCUCUCUUUACUGCGGCGCGGGGCAAGGAAAGAGAGCGG [target2_mut2 (CANX distal mutant), single-stranded]”: binds ([1]; snap-cooled, diminished only under pairing conditions).

The exact form of at least one protein or probe is not confirmed. Where cells or extracts were used, other partners may take part. For some assays here: Negatives hold for the conditions tested. Where a protein sequence is shown, tags need not be part of it. A weaker result is weaker than the reference pair of the same experiment. For some assays here: At least one verdict rests on a figure or table, not on a statement of the authors.
